The values below come from article PMC7696940, “Effects of Rationally Designed Physico-Chemical Variants of the Peptide PuroA on Biocidal Activity towards Bacterial and Mammalian Cells” (International Journal of Molecular Sciences, 2020).

Where no end group is shown, it is not given here.

The data set deals with HeLa cells. Type of data set: cell-based, human. The following applies: ratio of IC50 NIH-3T3 to IC50 HeLa; bounds calculated with 250 μg/mL. The protocol: Cytotoxicity to human cervical carcinoma HeLa cells and mouse fibroblastic NIH-3T3 cells was determined using the MTT assay as per Scudiero et al. with minor modifications. The cells were maintained in Dulbecco’s Modified Eagle Medium (DMEM) with 10% foetal bovine serum (FBS) and 1% penicillin G in a humidified incubator (Heraeus Hera Cell incubator) at 37 °C with 5% CO2. They were seeded in 96-well microtiter plates at 1 × 10^4 cells/well and allowed to adhere for 24 h in the incubator. The medium was removed, and adherent cells were washed with PBS. Fresh media containing serially diluted peptides in PBS (final concentrations 4 to 250 µg/mL) were added and the cells incubated for 24 h. Cells without peptides were used as negative controls. Following incubations, the medium was removed, and adherent cells were washed with PBS. 150 µL of MTT (diluted to 0.33 mg/mL in DMEM) and the plates incubated for 3 h. The precipitated formazan was dissolved in 100 µL of DMSO and its absorbance measured at 570 nm. Cell viability was determined as: (OD570 nm peptide treated cells/(OD570 nm untreated cells) × 100. Positive cytotoxicity was defined as peptide concentration that causes 50% growth inhibition in a cell line (IC50). All tests were carried out in triplicate.
Take `CC(C)[C@H](NC(=O)[C@@H]1CCCN1C(=O)[C@@H](N)Cc1ccccc1)C(=O)N[C@H](C(=O)N[C@@H](Cc1c[nH]c2ccccc12)C(=O)N[C@@H](CCCNC(=N)N)C(=O)N[C@@H](Cc1c[nH]c2ccccc12)C(=O)N[C@@H](Cc1c[nH]c2ccccc12)C(=O)N[C@@H](CCCCN)C(=O)N[C@@H](Cc1c[nH]c2ccccc12)C(=O)N[C@@H](Cc1c[nH]c2ccccc12)C(=O)N[C@@H](CCCCN)C(=O)NCC(N)=O)[C@@H](C)O` [PuroA]: the “Therapeutic Index (TI)” value is reported as less than 1.
With RKRWWRWWKWWKR-NH2 [Peptide P1], the “Therapeutic Index (TI)” value is given as 7.8.
On to RRRRWRWWRWWRR-NH2 [Peptide R8], for which the “Therapeutic Index (TI)” value is more than 1.
With RWWKWW-NH2 [Peptide R6], the “Therapeutic Index (TI)” value is listed as less than 1.
Turning to RWWKWWK-NH2 [Peptide R7], the “Therapeutic Index (TI)” value is reported as less than 1.
